Source: the supplement of paper PMC10849652
This is one part of the list.

By UniProt entry, the sequences of proteins in these tests, tags left out. Where a name states a change or a piece, a line headed by the entry shows the natural chain unless it says otherwise.
UniProt Q13137: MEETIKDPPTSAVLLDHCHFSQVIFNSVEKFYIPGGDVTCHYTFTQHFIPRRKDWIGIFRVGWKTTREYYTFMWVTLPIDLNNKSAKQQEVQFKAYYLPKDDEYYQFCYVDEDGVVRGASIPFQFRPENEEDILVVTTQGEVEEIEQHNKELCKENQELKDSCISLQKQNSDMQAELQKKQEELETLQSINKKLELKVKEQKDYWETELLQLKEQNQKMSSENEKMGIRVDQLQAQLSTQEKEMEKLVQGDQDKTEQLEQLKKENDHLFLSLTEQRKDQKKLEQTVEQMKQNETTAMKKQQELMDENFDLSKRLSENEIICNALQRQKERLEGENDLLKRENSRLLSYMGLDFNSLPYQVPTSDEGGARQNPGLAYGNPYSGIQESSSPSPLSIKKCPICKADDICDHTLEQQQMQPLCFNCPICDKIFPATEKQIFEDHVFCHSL
UniProt O43852: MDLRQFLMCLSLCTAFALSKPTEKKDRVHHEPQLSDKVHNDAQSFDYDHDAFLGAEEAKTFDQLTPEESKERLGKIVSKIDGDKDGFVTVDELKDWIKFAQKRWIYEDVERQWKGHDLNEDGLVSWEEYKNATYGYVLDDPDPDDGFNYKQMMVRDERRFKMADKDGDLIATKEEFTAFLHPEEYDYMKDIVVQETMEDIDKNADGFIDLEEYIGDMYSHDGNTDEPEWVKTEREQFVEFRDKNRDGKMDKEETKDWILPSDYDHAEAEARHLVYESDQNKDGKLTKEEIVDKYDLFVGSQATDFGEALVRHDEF
UniProt Q9BVC5: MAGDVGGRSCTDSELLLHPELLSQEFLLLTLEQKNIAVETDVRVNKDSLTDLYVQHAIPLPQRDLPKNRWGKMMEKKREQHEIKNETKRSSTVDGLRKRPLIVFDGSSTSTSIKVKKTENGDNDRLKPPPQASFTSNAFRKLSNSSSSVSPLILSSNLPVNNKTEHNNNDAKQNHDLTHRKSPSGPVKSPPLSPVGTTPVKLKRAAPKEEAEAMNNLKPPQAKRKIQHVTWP
UniProt Q8WUQ7: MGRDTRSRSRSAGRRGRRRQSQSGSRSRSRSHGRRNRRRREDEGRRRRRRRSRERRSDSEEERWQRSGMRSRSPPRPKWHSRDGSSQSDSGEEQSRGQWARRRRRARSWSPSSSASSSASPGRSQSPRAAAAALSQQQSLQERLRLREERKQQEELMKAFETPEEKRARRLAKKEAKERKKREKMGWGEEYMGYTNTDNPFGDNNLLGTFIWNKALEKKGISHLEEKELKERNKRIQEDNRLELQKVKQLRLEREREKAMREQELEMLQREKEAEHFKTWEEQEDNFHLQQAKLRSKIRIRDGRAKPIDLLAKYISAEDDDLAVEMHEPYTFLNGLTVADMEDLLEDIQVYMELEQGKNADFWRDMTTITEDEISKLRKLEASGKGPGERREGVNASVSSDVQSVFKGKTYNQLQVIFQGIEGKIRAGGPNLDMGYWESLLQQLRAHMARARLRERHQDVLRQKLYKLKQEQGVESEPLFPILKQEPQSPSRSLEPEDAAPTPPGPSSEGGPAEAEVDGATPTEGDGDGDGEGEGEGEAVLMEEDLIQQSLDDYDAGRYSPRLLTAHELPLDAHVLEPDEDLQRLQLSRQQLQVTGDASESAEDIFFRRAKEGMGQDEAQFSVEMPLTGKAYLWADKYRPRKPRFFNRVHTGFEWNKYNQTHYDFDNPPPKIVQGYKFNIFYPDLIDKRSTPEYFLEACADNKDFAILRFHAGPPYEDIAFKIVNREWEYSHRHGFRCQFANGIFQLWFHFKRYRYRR
UniProt Q6P5X5: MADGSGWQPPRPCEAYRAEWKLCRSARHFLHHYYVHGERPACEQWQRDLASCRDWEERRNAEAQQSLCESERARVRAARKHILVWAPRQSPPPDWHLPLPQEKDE
UniProt P00915: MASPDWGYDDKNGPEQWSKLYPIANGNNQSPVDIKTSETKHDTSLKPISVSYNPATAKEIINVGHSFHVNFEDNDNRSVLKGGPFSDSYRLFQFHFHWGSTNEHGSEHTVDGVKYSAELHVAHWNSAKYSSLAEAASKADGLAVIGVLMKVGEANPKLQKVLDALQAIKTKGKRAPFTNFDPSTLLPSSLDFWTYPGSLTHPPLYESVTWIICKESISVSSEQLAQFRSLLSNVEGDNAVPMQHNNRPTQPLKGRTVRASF
UniProt Q9NZ63: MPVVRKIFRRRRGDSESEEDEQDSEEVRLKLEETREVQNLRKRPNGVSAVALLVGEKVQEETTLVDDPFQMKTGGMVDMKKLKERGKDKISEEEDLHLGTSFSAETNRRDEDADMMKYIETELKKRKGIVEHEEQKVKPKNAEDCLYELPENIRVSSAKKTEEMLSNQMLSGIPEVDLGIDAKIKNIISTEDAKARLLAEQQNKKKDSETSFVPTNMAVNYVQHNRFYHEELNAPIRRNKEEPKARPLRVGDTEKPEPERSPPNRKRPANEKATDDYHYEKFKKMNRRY
UniProt Q5T6V5: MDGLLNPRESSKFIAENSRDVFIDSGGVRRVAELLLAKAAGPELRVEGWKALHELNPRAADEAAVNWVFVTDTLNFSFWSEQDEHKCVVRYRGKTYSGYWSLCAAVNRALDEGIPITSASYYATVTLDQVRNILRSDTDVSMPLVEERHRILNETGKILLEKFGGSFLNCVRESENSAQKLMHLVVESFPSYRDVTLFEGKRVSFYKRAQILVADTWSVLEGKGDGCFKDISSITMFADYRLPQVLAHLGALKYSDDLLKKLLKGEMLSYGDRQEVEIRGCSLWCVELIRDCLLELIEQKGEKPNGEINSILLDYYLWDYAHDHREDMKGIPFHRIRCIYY
UniProt Q8N1Q1: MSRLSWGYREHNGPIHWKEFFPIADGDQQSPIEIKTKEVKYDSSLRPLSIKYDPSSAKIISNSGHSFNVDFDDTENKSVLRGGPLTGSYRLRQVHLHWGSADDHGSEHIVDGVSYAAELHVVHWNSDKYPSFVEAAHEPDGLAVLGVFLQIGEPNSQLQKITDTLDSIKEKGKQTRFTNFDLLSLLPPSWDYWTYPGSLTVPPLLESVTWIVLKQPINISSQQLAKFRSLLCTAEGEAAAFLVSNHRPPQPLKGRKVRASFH
UniProt Q6P1X6: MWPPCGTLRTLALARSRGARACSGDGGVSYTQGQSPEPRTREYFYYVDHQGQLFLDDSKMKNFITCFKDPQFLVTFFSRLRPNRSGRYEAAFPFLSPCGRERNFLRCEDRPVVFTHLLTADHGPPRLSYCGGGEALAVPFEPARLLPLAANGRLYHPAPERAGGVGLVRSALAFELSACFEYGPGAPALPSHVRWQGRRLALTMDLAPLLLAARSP
UniProt P41223: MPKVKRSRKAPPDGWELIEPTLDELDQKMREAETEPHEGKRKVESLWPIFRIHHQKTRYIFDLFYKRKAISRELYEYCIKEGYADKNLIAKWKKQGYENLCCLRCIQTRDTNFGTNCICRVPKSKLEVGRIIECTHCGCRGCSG
UniProt Q9BPX7: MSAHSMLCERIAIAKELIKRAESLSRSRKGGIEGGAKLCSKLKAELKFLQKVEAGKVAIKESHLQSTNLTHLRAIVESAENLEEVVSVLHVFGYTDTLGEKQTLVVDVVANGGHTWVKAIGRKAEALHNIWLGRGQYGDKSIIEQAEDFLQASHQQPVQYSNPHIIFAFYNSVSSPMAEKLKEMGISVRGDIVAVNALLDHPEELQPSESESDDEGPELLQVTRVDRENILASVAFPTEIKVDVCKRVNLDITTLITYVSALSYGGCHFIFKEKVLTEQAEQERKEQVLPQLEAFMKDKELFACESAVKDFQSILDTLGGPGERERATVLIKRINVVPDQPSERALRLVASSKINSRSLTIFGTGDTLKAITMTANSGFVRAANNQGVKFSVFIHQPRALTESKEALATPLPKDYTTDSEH
UniProt Q9Y297: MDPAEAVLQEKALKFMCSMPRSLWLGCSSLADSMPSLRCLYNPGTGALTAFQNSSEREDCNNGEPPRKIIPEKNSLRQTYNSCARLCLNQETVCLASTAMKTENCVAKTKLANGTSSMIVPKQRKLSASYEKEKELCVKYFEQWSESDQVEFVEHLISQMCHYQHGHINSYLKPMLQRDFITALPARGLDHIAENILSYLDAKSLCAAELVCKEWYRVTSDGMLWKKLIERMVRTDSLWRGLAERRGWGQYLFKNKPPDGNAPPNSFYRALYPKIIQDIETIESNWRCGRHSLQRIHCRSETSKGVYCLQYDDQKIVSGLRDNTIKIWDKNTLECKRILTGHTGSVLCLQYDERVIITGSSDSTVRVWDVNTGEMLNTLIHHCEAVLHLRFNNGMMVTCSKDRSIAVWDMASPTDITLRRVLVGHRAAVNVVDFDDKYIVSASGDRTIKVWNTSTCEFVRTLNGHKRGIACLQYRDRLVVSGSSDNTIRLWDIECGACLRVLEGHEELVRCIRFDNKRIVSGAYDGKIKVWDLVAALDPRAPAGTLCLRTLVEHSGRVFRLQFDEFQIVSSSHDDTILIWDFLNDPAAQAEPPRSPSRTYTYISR
UniProt Q13901: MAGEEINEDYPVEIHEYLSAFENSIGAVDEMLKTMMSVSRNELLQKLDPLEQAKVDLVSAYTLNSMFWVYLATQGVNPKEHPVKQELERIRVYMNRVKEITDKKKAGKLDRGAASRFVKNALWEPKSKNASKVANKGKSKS
UniProt Q9BSU1: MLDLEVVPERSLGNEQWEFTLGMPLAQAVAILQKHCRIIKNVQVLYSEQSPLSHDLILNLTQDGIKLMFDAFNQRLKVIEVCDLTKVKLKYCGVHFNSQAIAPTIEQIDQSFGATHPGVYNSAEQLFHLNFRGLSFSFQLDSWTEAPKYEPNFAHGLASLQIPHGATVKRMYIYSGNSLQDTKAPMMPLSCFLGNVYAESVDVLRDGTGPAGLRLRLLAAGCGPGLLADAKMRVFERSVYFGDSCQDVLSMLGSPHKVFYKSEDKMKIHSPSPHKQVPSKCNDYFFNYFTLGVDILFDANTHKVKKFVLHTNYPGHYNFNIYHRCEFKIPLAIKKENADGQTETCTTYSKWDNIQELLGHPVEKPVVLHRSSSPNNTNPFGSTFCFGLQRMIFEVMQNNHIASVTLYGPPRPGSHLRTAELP

Key:
Experiment in all cases: log2 fold change, soluble protein after heating vs DMSO (PISA); higher = thermal stabilisation; K562 lysate, 10 uM; active = over 0.2 and 3.5 SD of the protein, either way, in both replicates (recomputed)
vemurafenib = compound: CCCS(=O)(=O)Nc1ccc(F)c(C(=O)c2c[nH]c3ncc(-c4ccc(Cl)cc4)cc23)c1F [vemurafenib]
Summary of the method: (§1)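 The values are log-two fold changes in thermal stability compared with solvent controls and come from duplicates. They were obtained by TMTpro 16plex LC-MS/MS, with channel sums equalised, on the supernatant after 21,000xg for 90 min. That supernatant came from crude K562 extract at 1 mg/mL protein treated with 10 μM compound for 30 min, heated for 3 min across 48°C-58°C, pooled and brought to 0.5% NP-40 at 4°C.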

[1] = compound: CCCS(=O)(=O)Nc1ccc(F)c(C(=O)c2c[nH]c3ncc(Cl)cc23)c1F
Summary of the method: as §1

barasertib = compound: CCN(CCCOc1ccc2c(Nc3cc(CC(=O)Nc4cccc(F)c4)[nH]n3)ncnc2c1)CCOP(=O)(O)O [barasertib]
Summary of the method: as §1

[2] = compound: CC[C@@H]1C(=O)N(C)c2cnc(Nc3ccc(C(=O)NC4CCN(C)CC4)cc3OC)nc2N1C1CCCC1
Summary of the method: as §1

volasertib = compound: CC[C@@H]1C(=O)N(C)c2cnc(Nc3ccc(C(=O)N[C@H]4CC[C@H](N5CCN(CC6CC6)CC5)CC4)cc3OC)nc2N1C(C)C [volasertib]
Summary of the method: as §1

[3] = compound: CCn1c(C(=O)N(C2CC2)C2CC2)cc2c3c(ncn3C)c(Nc3cc(C)n(C)n3)nc21
Summary of the method: as §1

[4] = compound: CCn1cc(-c2ccnc3[nH]c(-c4cccc(CN(C)C)c4)cc23)c(-c2ccc(NC(=O)N(C)C)cc2)n1
Summary of the method: as §1

[5] = compound: CN1CCC(CNc2ccc3ncc(-c4cccc(OC(F)(F)F)c4)n3n2)CC1
Summary of the method: as §1

saracatinib = compound: CN1CCN(CCOc2cc(OC3CCOCC3)c3c(Nc4c(Cl)ccc5c4OCO5)ncnc3c2)CC1 [saracatinib]
Summary of the method: as §1

sotrastaurin = compound: CN1CCN(c2nc(C3=C(c4c[nH]c5ccccc45)C(=O)NC3=O)c3ccccc3n2)CC1 [sotrastaurin]
Summary of the method: as §1

alvocidib = compound: CN1CC[C@H](c2c(O)cc(O)c3c(=O)cc(-c4ccccc4Cl)oc23)[C@H](O)C1 [alvocidib]
Summary of the method: as §1

Tubastatin A = compound: CN1CCc2c(c3ccccc3n2Cc2ccc(C(=O)NO)cc2)C1 [Tubastatin A]
Summary of the method: as §1

[6] = compound: CNC(=O)C1=CC=CC=C1NC2=NC(=NC=C2Cl)NC3=C(C=C(C=C3)N4CCOCC4)OC
Summary of the method: as §1

defactinib = compound: CNC(=O)c1ccc(Nc2ncc(C(F)(F)F)c(NCc3nccnc3N(C)S(C)(=O)=O)n2)cc1 [defactinib]
Summary of the method: as §1

[7] = compound: CNc1nc(-c2ccc3c(N)n[nH]c3c2)cc(N2C[C@@H](C(=O)NC3CCCCC3)CC[C@H]2C)n1
Summary of the method: as §1

encorafenib = compound: COC(=O)N[C@@H](C)CNc1nccc(-c2cn(C(C)C)nc2-c2cc(Cl)cc(NS(C)(=O)=O)c2F)n1 [encorafenib]
Summary of the method: as §1

[8] = compound: COC(=O)[C@H](CCSC)NC(=O)C1=C(C=C(C=C1)NC[C@H](CS)N)C2=CC=CC=C2
Summary of the method: as §1

alisertib = compound: COc1cc(Nc2ncc3c(n2)-c2ccc(Cl)cc2C(c2c(F)cccc2OC)=NC3)ccc1C(=O)O [alisertib]
Summary of the method: as §1

[9] = compound: COc1cc2nc(-c3cc(F)ccc3O)nc(N[C@@H]3CNC[C@H]3C(C)(C)O)c2cc1OC
Summary of the method: as §1

gefitinib = compound: COc1cc2ncnc(Nc3ccc(F)c(Cl)c3)c2cc1OCCCN1CCOCC1 [gefitinib]
Summary of the method: as §1

Measured: log2 fold change

CALCOCO2 isoform 4 (UniProt Q13137)
inactive: vemurafenib 0.018 | [1] 0.033 | barasertib 0.041 | [2] 0.025 | volasertib 0.01 | [3] -0.019 | [4] -0.073 | [5] 0.004 | saracatinib 0.012 | sotrastaurin -0.019 | alvocidib 0.002 | Tubastatin A -0.002 | [6] 0.014 | defactinib -0.044 | [7] -0.007 | encorafenib 0.014 | [8] -0.067 | alisertib -0.009 | [9] -0.003 | gefitinib -0.013

CALU isoform 4 (UniProt O43852)
inactive: vemurafenib 0.025 | [1] -0.057 | barasertib -0.01 | [2] -0.063 | volasertib -0.004 | [3] -0.041 | [4] -0.008 | [5] 0.061 | saracatinib -0.01 | sotrastaurin -0.027 | alvocidib -0.05 | Tubastatin A 0.032 | [6] -0.026 | defactinib -0.052 | [7] -0.017 | encorafenib 0 | [8] -0.035 | alisertib 0.028 | [9] 0.011 | gefitinib 0.047

C2orf49 (UniProt Q9BVC5)
inactive: vemurafenib -0.021 | [1] 0.005 | barasertib -0.089 | [2] 0.042 | volasertib -0.003 | [3] 0.011 | [4] -0.076 | [5] 0.024 | saracatinib -0.005 | sotrastaurin 0.01 | alvocidib 0.004 | Tubastatin A -0.02 | [6] 0.049 | defactinib 0 | [7] -0.091 | encorafenib -0.017 | [8] -0.112 | alisertib 0.012 | [9] -0.007 | gefitinib -0.04

CACTIN isoform 2 (UniProt Q8WUQ7)
inactive: vemurafenib -0.024 | [1] 0.048 | barasertib -0.055 | [2] 0.039 | volasertib 0 | [3] -0.101 | [4] 0.116 | [5] -0.048 | saracatinib 0.025 | sotrastaurin 0.005 | alvocidib 0.003 | Tubastatin A -0.088 | [6] 0.1 | defactinib -0.005 | [7] -0.024 | encorafenib -0.017 | [8] 0.012 | alisertib -0.078 | [9] 0.001 | gefitinib 0.054

C22orf39 (UniProt Q6P5X5)
inactive: vemurafenib 0.13 | [1] -0.062 | barasertib 0.133 | [2] 0.076 | volasertib -0.253 | [3] 0.066 | [4] -0.074 | [5] 0.09 | saracatinib -0.06 | alvocidib 0.014 | Tubastatin A -0.001 | defactinib 0.096 | [7] 0.029 | encorafenib -0.128 | [8] 0.013 | alisertib 0.087 | [9] 0.118 | gefitinib 0

CA1 (UniProt P00915)
inactive: vemurafenib -0.002 | [1] -0.015 | barasertib 0.03 | [2] 0.012 | volasertib 0.028 | [3] -0.027 | [4] -0.099 | [5] 0.078 | saracatinib -0.004 | sotrastaurin -0.011 | alvocidib -0.028 | Tubastatin A 0.039 | [6] -0.033 | defactinib -0.005 | [7] 0.02 | encorafenib -0.032 | [8] -0.042 | alisertib -0.036 | [9] 0.013 | gefitinib -0.011

C9orf78 (UniProt Q9NZ63)
inactive: vemurafenib -0.014 | [1] -0.016 | barasertib -0.026 | [2] 0.1 | volasertib 0.042 | [3] 0.005 | [4] 0.092 | [5] -0.041 | saracatinib 0.002 | sotrastaurin 0.012 | alvocidib 0.008 | Tubastatin A 0.036 | [6] 0.01 | defactinib -0.015 | [7] 0.023 | encorafenib -0.005 | [8] -0.043 | alisertib -0.024 | [9] -0.002 | gefitinib 0.015

C9orf64 (UniProt Q5T6V5)
inactive: vemurafenib 0.022 | [1] 0.007 | barasertib -0.043 | [2] -0.032 | volasertib -0.032 | [3] 0.013 | [4] -0.032 | [5] 0.002 | saracatinib -0.026 | sotrastaurin -0.058 | alvocidib 0.02 | Tubastatin A -0.036 | [6] -0.015 | defactinib -0.026 | [7] -0.045 | encorafenib 0.034 | [8] -0.029 | alisertib 0.012 | [9] -0.006 | gefitinib -0.006

CA13 (UniProt Q8N1Q1)
inactive: vemurafenib -0.019 | [1] 0.006 | barasertib -0.01 | [2] 0.021 | volasertib -0.05 | [3] -0.007 | [4] -0.03 | [5] 0.002 | saracatinib 0.046 | sotrastaurin -0.041 | alvocidib 0.026 | Tubastatin A 0.045 | [6] 0.022 | defactinib -0.044 | [7] -0.023 | encorafenib -0.032 | [8] -0.017 | alisertib 0 | [9] 0.036 | gefitinib -0.069

C8orf82 (UniProt Q6P1X6)
inactive: vemurafenib 0.031 | [1] 0.013 | barasertib 0.011 | [2] -0.005 | volasertib 0.003 | [3] 0.006 | [4] 0.016 | [5] -0.01 | saracatinib 0.077 | sotrastaurin -0.039 | alvocidib -0.011 | Tubastatin A 0.08 | [6] 0.026 | defactinib -0.013 | [7] 0.095 | encorafenib -0.004 | [8] -0.119 | alisertib -0.09 | [9] 0.018 | gefitinib 0.07

Taken from above (2 entries):
CA1 (UniProt P00915)
inactive: vemurafenib -0.002 | [1] -0.015 | barasertib 0.03 | [2] 0.012 | volasertib 0.028 | [3] -0.027 | [4] -0.099 | [5] 0.078 | saracatinib -0.004 | sotrastaurin -0.011 | alvocidib -0.028 | Tubastatin A 0.039 | [6] -0.033 | defactinib -0.005 | [7] 0.02 | encorafenib -0.032 | [8] -0.042 | alisertib -0.036 | [9] 0.013 | gefitinib -0.011

C9orf78 (UniProt Q9NZ63)
inactive: vemurafenib -0.014 | [1] -0.016 | barasertib -0.026 | [2] 0.1 | volasertib 0.042 | [3] 0.005 | [4] 0.092 | [5] -0.041 | saracatinib 0.002 | sotrastaurin 0.012 | alvocidib 0.008 | Tubastatin A 0.036 | [6] 0.01 | defactinib -0.015 | [7] 0.023 | encorafenib -0.005 | [8] -0.043 | alisertib -0.024 | [9] -0.002 | gefitinib 0.015

Continued:

BUD31 (UniProt P41223)
inactive: vemurafenib 0.022 | [1] 0.009 | barasertib -0.051 | [2] -0.03 | volasertib 0.014 | [3] -0.011 | [4] 0.185 | [5] -0.076 | saracatinib 0.011 | sotrastaurin -0.055 | alvocidib 0.103 | Tubastatin A -0.001 | [6] 0.007 | defactinib 0.01 | [7] -0.004 | encorafenib -0.018 | [8] -0.036 | alisertib 0.021 | [9] -0.005 | gefitinib -0.069

C7orf25 isoform 2 (UniProt Q9BPX7)
inactive: vemurafenib -0.309 | [1] 0.087 | barasertib 0.057 | [2] 0.049 | volasertib 0.005 | [3] -0.051 | [4] 0.154 | [5] -0.097 | saracatinib 0.157 | sotrastaurin -0.052 | alvocidib 0.013 | Tubastatin A 0.008 | [6] 0.065 | defactinib 0.036 | [7] -0.083 | encorafenib 0.054 | [8] -0.039 | [9] 0.128

C20orf27 isoform 2 (UniProt Q9GZN8)
inactive: vemurafenib 0.053 | [1] 0.018 | barasertib -0.041 | [2] 0.047 | volasertib -0.015 | [3] -0.002 | [4] 0.011 | [5] 0.039 | saracatinib 0.011 | sotrastaurin -0.074 | alvocidib 0.049 | Tubastatin A 0.034 | [6] 0.027 | defactinib -0.075 | [7] 0.094 | encorafenib -0.038 | [8] -0.008 | alisertib -0.016 | [9] 0.018 | gefitinib -0.082

BTRC (UniProt Q9Y297)
inactive: vemurafenib -0.002 | [1] 0.023 | barasertib 0.052 | [2] 0.076 | volasertib -0.041 | [3] -0.088 | [4] 0.073 | [5] 0.067 | alvocidib -0.05 | Tubastatin A -0.019 | [6] -0.049 | defactinib -0.018 | encorafenib 0.035 | [8] 0.172 | alisertib -0.022 | [9] 0.096 | gefitinib -0.058

C1D (UniProt Q13901)
inactive: vemurafenib -0.013 | [1] -0.008 | barasertib -0.013 | [2] 0.034 | volasertib -0.033 | [3] 0.012 | [4] 0.001 | [5] 0.04 | saracatinib -0.018 | sotrastaurin -0.017 | alvocidib 0.028 | Tubastatin A -0.04 | [6] -0.032 | defactinib 0.023 | [7] 0.029 | encorafenib -0.043 | [8] -0.036 | alisertib -0.051 | [9] 0.01 | gefitinib -0.021

C16orf70 (UniProt Q9BSU1)
inactive: vemurafenib 0.053 | [1] 0.086 | barasertib -0.016 | [2] 0 | volasertib -0.038 | [3] 0.018 | saracatinib -0.037 | sotrastaurin 0.031 | Tubastatin A 0.075 | [6] 0.082 | defactinib 0.216 | [7] -0.005 | encorafenib 0.04 | [8] -0.135 | [9] 0.076
